# Reference: publication PMC12333249
# By UniProt entry, the sequences of proteins in these tests, tags left out.
# UniProt Q7KZF4: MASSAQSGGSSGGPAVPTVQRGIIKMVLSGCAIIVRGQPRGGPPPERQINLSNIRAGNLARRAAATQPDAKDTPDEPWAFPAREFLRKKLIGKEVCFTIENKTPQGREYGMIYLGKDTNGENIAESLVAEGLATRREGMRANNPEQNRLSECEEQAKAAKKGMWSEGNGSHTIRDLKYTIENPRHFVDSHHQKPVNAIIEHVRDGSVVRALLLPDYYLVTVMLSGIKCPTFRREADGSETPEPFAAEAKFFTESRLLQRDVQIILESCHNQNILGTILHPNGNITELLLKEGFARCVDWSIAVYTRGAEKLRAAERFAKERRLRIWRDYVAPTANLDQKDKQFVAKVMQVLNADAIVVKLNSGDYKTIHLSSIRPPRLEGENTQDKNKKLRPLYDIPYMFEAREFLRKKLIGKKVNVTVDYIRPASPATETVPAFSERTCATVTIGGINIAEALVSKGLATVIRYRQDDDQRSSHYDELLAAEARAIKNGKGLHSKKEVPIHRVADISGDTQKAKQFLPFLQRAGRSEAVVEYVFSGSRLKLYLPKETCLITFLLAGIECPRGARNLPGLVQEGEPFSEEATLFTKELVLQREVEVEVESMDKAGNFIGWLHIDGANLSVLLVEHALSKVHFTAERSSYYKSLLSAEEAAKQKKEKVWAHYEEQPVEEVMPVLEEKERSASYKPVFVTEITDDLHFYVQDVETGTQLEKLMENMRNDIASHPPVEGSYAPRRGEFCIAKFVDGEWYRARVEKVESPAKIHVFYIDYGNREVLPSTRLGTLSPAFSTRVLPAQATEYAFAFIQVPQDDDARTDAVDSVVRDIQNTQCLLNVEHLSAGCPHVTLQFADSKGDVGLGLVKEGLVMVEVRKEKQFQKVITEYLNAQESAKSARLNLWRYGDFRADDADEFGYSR
# Results are given in words; binding and its absence hold for the method and conditions named. Binding seen in cells or lysates may run through a third protein. A yes stands for co-enrichment or nearness to the bait. Other partners may have been found.
# B1: metadherin (MTDH) (protein, UniProt Q86UE4 1-582)
# chain: MAARSWQDELAQQAEEGSARLREMLSVGLGFLRTELGLDLGLEPKRYPGWVILVGTGALGLLLLFLLGYGWAAACAGARKKRRSPPRKREEAAAVPAAAPDDLALLKNLRSEEQKKKNRKKLSEKPKPNGRTVEVAEGEAVRTPQSVTAKQPPEIDKKNEKSKKNKKKSKSDAKAVQNSSRHDGKEVDEGAWETKISHREKRQQRKRDKVLTDSGSLDSTIPGIENTITVTTEQLTTASFPVGSKKNKGDSHLNVQVSNFKSGKGDSTLQVSSGLNENLTVNGGGWNEKSVKLSSQISAGEEKWNSVSPASAGKRKTEPSAWSQDTGDANTNGKDWGRSWSDRSIFSGIGSTAEPVSQSTTSDYQWDVSRNQPYIDDEWSGLNGLSSADPNSDWNAPAEEWGNWVDEERASLLKSQEPIPDDQKVSDDDKEKGEGALPTGKSKKKKKKKKKQGEDNSTAQDTEELEKEIREDLPVNTSKTRPKQEKAFSLKTISTSDPAEVLVKNSQPIKTLPPATSTEPSVILSKSDSDKSSSQVPPILQETDKSKSNTKQNSVPPSQTKSETSWESPKQIKKKKKARRET
# Target: Staphylococcal nuclease and Tudor domain containing 1 (SND1) (human (endogenous in PCa cell lines; DU-145 and PC-3 are the lines used)) (UniProt Q7KZF4)
# Test: affinity purification with mass spectrometry; Co-IP-LC/MS: beads with 2 µg SND1 antibody, cell lysate supernatant, overnight at 4 ℃, three washes, eluted proteins detected by LC/MS
binder,measurement,value
B1,binding,binds
